From patent US20240317834A1, “COMPOSITIONS AND METHODS FOR NEUROLOGICAL DISEASES” (CODA BIOTHERAPEUTICS, INC., priority 2020, published 2024)
Residue numbers refer to the chain shown, from its start. In names and notes the source's numbering stands.

B1: CODA807: engineered chimeric LGIC receptor, Y115D, L131E in SEQ ID NO: 33 (protein)
chain: MRCSPGGVWLALAASLLHVSLQGEFQRKLYKELVKNYNPLERPVANDSQPLTVYFSLSLLQIMDVDEKNQVLTTNIWLQMSWTDHYLQWNVSEYPGVKTVRFPDGQIWKPDILLDNSADERFDATFHTNVEVNSSGHCQYLPPGIFKSSCPMDLKNFPMDVQTCKLKFGSWSYGGWSLDLQMQEADISGYIPNGEWDLVGIPGKRSERFYECCKEPYPDVTFTVTMRRRMGYYLIQMYIPSLLIVILSWISFWINMDAAPARVGLGITTVLTMTTQSSGSRASLPKVSYVKAIDIWMAVCLLFVFSALLEYAAVNFVSRQHKELLRFRRKRRHHKSPMLNLFQEDEAGEGRFNFSAYGMGPACLQAKDGISVKGANNSNTTNPPPAPSKSPEEMRKLFIQRAKKIDKISRIGFPMAFLIFNMFYWIIYKIVRREDVHNQ
modifications: synthetic sequence of chimeric LGIC
B2: CODA952: engineered chimeric LGIC receptor, Y140I in SEQ ID NO: 33 (protein)
chain: B1 chain with D115Y, E131L, Y140I
modifications: synthetic sequence of chimeric LGIC
B3: CODA1025: engineered chimeric LGIC receptor, R101F, L131G in SEQ ID NO: 33 (protein)
chain: B1 chain with R101F, D115Y, E131G
modifications: synthetic sequence of chimeric LGIC
B4: CODA1027: engineered chimeric LGIC receptor, R101F, L131D in SEQ ID NO: 33 (protein)
chain: B1 chain with R101F, D115Y, E131D
modifications: synthetic sequence of chimeric LGIC
B5: CODA1045: engineered chimeric LGIC receptor, R101W, Y210V in SEQ ID NO: 33 (protein)
chain: B1 chain with R101W, D115Y, E131L, Y210V
modifications: synthetic sequence of chimeric LGIC
B6: CODA1047: engineered chimeric LGIC receptor, R101F, Y210V in SEQ ID NO: 33 (protein)
chain: B1 chain with R101F, D115Y, E131L, Y210V
modifications: synthetic sequence of chimeric LGIC
B7: CODA1048: engineered chimeric LGIC receptor, R101F, Y210F in SEQ ID NO: 33 (protein)
chain: B1 chain with R101F, D115Y, E131L, Y210F
modifications: synthetic sequence of chimeric LGIC
B8: CODA1053: engineered chimeric LGIC receptor, R101M, L131A in SEQ ID NO: 33 (protein)
chain: B1 chain with R101M, D115Y, E131A
modifications: synthetic sequence of chimeric LGIC
B9: CODA1054: engineered chimeric LGIC receptor, R101M, L131F in SEQ ID NO: 33 (protein)
chain: B1 chain with R101M, D115Y, E131F
modifications: synthetic sequence of chimeric LGIC
B10: CODA282: engineered chimeric LGIC receptor, Y115D in SEQ ID NO: 33 (protein)
chain: B1 chain with E131L
modifications: synthetic sequence of chimeric LGIC
B11: CODA283: engineered chimeric LGIC receptor, Y115E_N379K in SEQ ID NO: 33 (protein)
chain: B1 chain with D115E, E131L, N379K
modifications: synthetic sequence of chimeric LGIC
B12: CODA333: engineered chimeric LGIC receptor, L131S in SEQ ID NO: 33 (protein)
chain: B1 chain with D115Y, E131S
modifications: synthetic sequence of chimeric LGIC
B13: CODA335: engineered chimeric LGIC receptor, L131T in SEQ ID NO: 33 (protein)
chain: B1 chain with D115Y, E131T
modifications: synthetic sequence of chimeric LGIC

system: HEK293T cells; assay: not given; type: cell-based; conditions: not given

Molecule | Normalized AB % | Normalized AB MFI
B1 | 0.78 | 1.14
B2 | 0.54 | 2.64
B3 | 0.46 | 0.90
B4 | 0.50 | 0.68
B5 | 0.03 | 0.35
B6 | 0.03 | 0.38
B7 | 0.55 | 0.57
B8 | 0.91 | 0.90
B9 | 0.82 | 0.82
B10 | 1.23 | 1.04
B11 | 1.24 | 1.31
B12 | 1.28 | 1.20
B13 | 1.65 | 1.32

system: HEK293T cells; assay: Surface localization of HA-tagged engineered receptors by flow cytometry with anti-HA antibody; type: cell-based; conditions: % HA-tag positive cells, normalized to SEQ ID NO: 33 control

Molecule | Normalized HA %
B1 | 0.91
B2 | 1.41
B3 | 0.98
B4 | 0.61
B5 | 1.09
B6 | 1.13
B7 | 1.05
B8 | 1.31
B9 | 0.96
B10 | 0.91
B11 | 1.16
B12 | 1.42
B13 | 2.00

same assay, conditions: anti-HA MFI, normalized to SEQ ID NO: 33 control

Molecule | Normalized HA MFI
B1 | 1.00
B2 | 1.53
B3 | 0.63
B4 | 0.49
B5 | 0.87
B6 | 0.65
B7 | 0.61
B8 | 0.97
B9 | 0.88
B10 | 0.74
B11 | 1.00
B12 | 0.76
B13 | 0.88
